The list does not hold the whole screen: it is rich in T/C values a quarter to a half above the control, in often repeated tests (any T/C) and in doses without a T/C. Other doses and runs of a compound stand elsewhere. T/C: endpoint of the treated group in % of that of the vehicle group. Some entries give survivors of the animals treated and no T/C: the source holds a T/C of zero for them, seemingly a mark for toxic or unscored doses. Some doses without a T/C left all or most animals alive at the check, yet need not have been tolerated: survival well below the control is almost never listed, so the zero probably covers shortened survival too. Counts of survivors are from the toxicity check (mostly the fifth day) where no day follows; animals may have died later. Schedules are NCI's codes, taken here to give the interval after Q, in days (D) or hours (H), and the number of doses after X. For survival time, the PubChem record calls one and a half times the control and up active, and a quarter to a half above the control has no call in these data; cut-offs in other NCI protocols can differ. Some entries were tested several times; the values are given in rising order. Some T/C values are followed by the survivors on the day toxicity was checked, most often the fifth; without a count, all were alive then.
Test system: BDF1 mice, P388 leukemia ip, median survival T/C
Assay: NCI In Vivo Anticancer Drug Screen. Data for tumor model P388 Leukemia (intraperitoneal) in B6D2F1 (BDF1) mice
Details: T/C endpoint: median survival time, higher T/C = longer survival
How it was run: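 Reported as T/C, where T is the survival measurement in dosed animals and C the same measurement in vehicle controls.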

[1] = dose: 50.0 mg/kg/injection, schedule: Q01DX009 (ip), vehicle: saline
[2] = dose: 100.0 mg/kg/injection, schedule: Q01DX009 (ip), vehicle: saline
[3] = dose: 200.0 mg/kg/injection, schedule: Q01DX009 (ip), vehicle: saline
[4] = dose: 200.0 mg/kg/injection, schedule: Q01DX009 (ip), vehicle: saline with Tween-80
[5] = dose: 10.0 mg/kg/injection, schedule: Q01DX009 (ip), vehicle: saline

## C#CCOCC(CCl)OC(N)=O (stereo not drawn)
dose: 400.0 mg/kg/injection, schedule: Q01DX009 (ip), vehicle: saline with Tween-80
  survivor count: 0 of 6
dose: 400.0 mg/kg/injection, schedule: Q04DX003 (ip), vehicle: saline
  T/C: 140 % of control [6 of 7 alive]

## ClCC(Br)CBr (stereo not drawn) (tested in a mixture with another compound)
[1]
  survivor count: 0 of 6
[2]
  survivor count: 0 of 6
[3]
  survivor count: 0 of 6

## C[n+]1c(/C=C/c2ccc(N(CCC(=O)O)CCC(=O)O)cc2)ccc2cc(Cl)ccc21
dose: 50.0 mg/kg/injection, schedule: Q01DX001 (ip), vehicle: saline with Tween-80
  survivor count: 4 of 6

## COC(OC)c1[nH]c(=S)[nH]c(=O)c1Cc1cc([N+](=O)[O-])ccc1O
dose: 100.0 mg/kg/injection, schedule: Q04DX003 (ip), vehicle: saline with Tween-80
  survivor count: 6 of 6

## O=NN(CCCl)C(=O)Nc1ccc(I)cc1
dose: 1.0 mg/kg/injection, schedule: Q01DX009 (ip), vehicle: saline with Tween-80
  T/C: 131 % of control
dose: 1.5 mg/kg/injection, schedule: Q01DX009 (ip), vehicle: saline with Tween-80
  T/C: 145 % of control
dose: 1.8 mg/kg/injection, schedule: Q01DX009 (ip), vehicle: saline
  T/C: 140 % of control
dose: 3.13 mg/kg/injection, schedule: Q01DX009 (ip), vehicle: saline with Tween-80
  T/C: 141 % of control
dose: 6.25 mg/kg/injection, schedule: Q01DX009 (ip), vehicle: saline with Tween-80
  T/C: 129 % of control
dose: 12.5 mg/kg/injection, schedule: Q01DX009 (ip), vehicle: saline with Tween-80
  T/C: 145 % of control
dose: 100.0 mg/kg/injection, schedule: Q04DX003 (ip), vehicle: saline sonified
  T/C: 130 % of control
dose: 150.0 mg/kg/injection, schedule: Q04DX003 (ip), vehicle: saline sonified
  survivor count: 4 of 6
dose: 200.0 mg/kg/injection, schedule: Q04DX003 (ip), vehicle: saline with Tween-80
  survivor count: 2 of 6
dose: 400.0 mg/kg/injection, schedule: Q04DX003 (ip), vehicle: saline with Tween-80
  survivor count: 0 of 6

## COc1cc(CC#N)ccc1C
dose: 12.5 mg/kg/injection, schedule: Q01DX009 (ip), vehicle: Klucel (hydroxypropylcellulose) (HPC)
  survivor count: 6 of 6
dose: 50.0 mg/kg/injection, schedule: Q01DX009 (ip), vehicle: Klucel (hydroxypropylcellulose) (HPC)
  survivor count: 4 of 6

## COc1ccc(C(CCl)(CCl)c2ccc(OC)c(C)c2)cc1C
[4]
  survivor count: 6 of 6

## C1CN1P1(N2CC2)=NP(N2CC2)(N2CC2)=NP(N2CC2)(N2CC2)=NP(N2CC2)(N2CC2)=N1
dose: 0.83 mg/kg/injection, schedule: Q04DX003 (ip), vehicle: saline
  T/C: 125 % of control
dose: 1.2 mg/kg/injection, schedule: Q04DX003 (ip), vehicle: saline
  T/C: 133 % of control
dose: 1.25 mg/kg/injection, schedule: Q04DX003 (ip), vehicle: saline
  T/C: 127 % of control
dose: 2.5 mg/kg/injection, schedule: Q04DX003 (ip), vehicle: saline
  T/C: 140 % of control
dose: 6.6 mg/kg/injection, schedule: Q01DX009 (ip), vehicle: saline
  survivor count: 6 of 6
dose: 6.6 mg/kg/injection, schedule: Q04DX003 (ip), vehicle: saline
  T/C: 127 % of control
[5]
  T/C: 135 % of control
  survivor count: 6 of 6
dose: 15.0 mg/kg/injection, schedule: Q01DX009 (ip), vehicle: saline
  survivor count: 6 of 6
dose: 20.0 mg/kg/injection, schedule: Q04DX003 (ip), vehicle: saline
  T/C: 104, 180, 285, 300 % of control
dose: 30.0 mg/kg/injection, schedule: Q04DX003 (ip), vehicle: saline
  survivor count: 6 of 6
dose: 40.0 mg/kg/injection, schedule: Q04DX003 (ip), vehicle: saline
  survivor count: 4 of 6
dose: 80.0 mg/kg/injection, schedule: Q04DX003 (ip), vehicle: saline
  survivor count: 5 of 6

## O=C(/C=C/c1ccncc1)c1ccccc1
dose: 400.0 mg/kg/injection, schedule: Q01DX001 (ip), vehicle: saline with Tween-80
  survivor count: 2 of 6

## CC[C@H]1CN2CCc3cc(OC)c(OC)cc3[C@@H]2C[C@@H]1C[C@@H]1c2cc(OC)c(OC)cc2CCN1CCN(CCCl)CCCl
dose: 7.2 mg/kg/injection, schedule: Q04DX003 (ip), vehicle: saline with Tween-80
  T/C: 147 % of control
dose: 18.0 mg/kg/injection, schedule: Q04DX003 (ip), vehicle: saline with Tween-80
  T/C: 137 % of control
dose: 30.0 mg/kg/injection, schedule: Q04DX003 (ip), vehicle: saline with Tween-80
  survivor count: 4 of 8

## CC[N+](C)(C)Cc1ccccc1
dose: 25.0 mg/kg/injection, schedule: Q01DX009 (ip), vehicle: saline
  survivor count: 4 of 6
[1]
  survivor count: 0 of 6
[2]
  survivor count: 0 of 6
[3]
  survivor count: 0 of 6

## C#C[C@]1(O)CC[C@H]2[C@@H]3CCc4cc(O)ccc4[C@H]3CC[C@@]21C
dose: 400.0 mg/kg/injection, schedule: Q01DX009 (ip), vehicle: Klucel (hydroxypropylcellulose) (HPC)
  survivor count: 5 of 6

## CC(=O)OCC1OC(=O)C(C)N(C)C(=O)CN(C)C(=O)C2C(=O)CC(C)N2C(=O)C(C(C)C)NC(=O)C1NC(=O)c1c2nc3c(C(=O)NC4C(=O)NC(C(C)C)C(=O)N5C(C)CC(OC(C)=O)C5C(=O)N(C)CC(=O)N(C)C(C(C)C)C(=O)OC4C)ccc(C)c3oc-2c(C)c(=O)c1N (stereo not drawn)
dose: 0.15 mg/kg/injection, schedule: Q04DX003 (ip), vehicle: saline with Tween-80
  T/C: 139 % of control
dose: 0.3 mg/kg/injection, schedule: Q04DX003 (ip), vehicle: saline with Tween-80
  T/C: 138 % of control
dose: 6.4 mg/kg/injection, schedule: Q01DX001 (ip), vehicle: saline with Tween-80
  survivor count: 4 of 8

## O=C1Oc2ccccc2C1=O
[3]
  survivor count: 6 of 6

## COc1cc2cc[n+]3c(C)c4ccc(OC)c(OC)c4cc3c2cc1OC (tested in a mixture with another compound)
dose: 5.0 mg/kg/injection, schedule: Q01DX009 (ip), vehicle: saline
  T/C: 137 % of control
dose: 60.0 mg/kg/injection, schedule: Q01DX009 (ip), vehicle: saline
  survivor count: 4 of 6
dose: 80.0 mg/kg/injection, schedule: Q01DX009 (ip), vehicle: saline
  survivor count: 6 of 6
dose: 168.0 mg/kg/injection, schedule: Q01DX009 (ip), vehicle: saline
  survivor count: 0 of 6

## COc1cc2c(c(OC)c1OC)-c1cc3c(cc1[C@@H](OC(C)=O)[C@@H]1COC(=O)[C@H]1C2)OCO3
dose: 5.3 mg/kg/injection, schedule: Q01DX009 (ip), vehicle: saline with Tween-80
  T/C: 135 % of control
dose: 5.6 mg/kg/injection, schedule: Q01DX009 (ip), vehicle: saline
  T/C: 130 % of control
dose: 8.0 mg/kg/injection, schedule: Q01DX009 (ip), vehicle: saline with Tween-80
  T/C: 140 % of control
dose: 8.0 mg/kg/injection, schedule: Q01DX009 (ip), vehicle: saline
  T/C: 125 % of control
dose: 12.0 mg/kg/injection, schedule: Q01DX009 (ip), vehicle: saline with Tween-80
  T/C: 125 % of control

## CC[C@H]1CN2CCc3cc(OC)c(OC)cc3[C@@H]2C[C@@H]1C[C@H]1NCCc2c1[nH]c1ccc(O)cc21
dose: 1.0 mg/kg/injection, schedule: Q04DX003 (ip), vehicle: saline + alcohol
  T/C: 145 % of control
dose: 8.0 mg/kg/injection, schedule: Q04DX003 (ip), vehicle: saline + alcohol
  survivor count: 5 of 8
dose: 16.0 mg/kg/injection, schedule: Q04DX003 (ip), vehicle: saline + alcohol
  survivor count: 0 of 8

## CCOC(=O)/C(C#N)=C/N(C)Cc1ccccc1
[4]
  survivor count: 4 of 6

## FC(F)(F)c1nc[nH]c1C(F)(F)F
dose: 100.0 mg/kg/injection, schedule: Q01DX009 (ip), vehicle: water
  survivor count: 0 of 6
dose: 200.0 mg/kg/injection, schedule: Q01DX009 (ip), vehicle: water
  survivor count: 0 of 6
dose: 200.0 mg/kg/injection, schedule: Q04DX003 (ip), vehicle: water
  survivor count: 1 of 6
dose: 400.0 mg/kg/injection, schedule: Q04DX003 (ip), vehicle: water
  survivor count: 0 of 6

— PubChem BioAssay AID328 (DTP/NCI, 2004)
